From patent publication US20110256056A1
Results are given in words; binding and its absence hold for the method and conditions named. Some entries that bind do so weakly or less than the wild type.

How the values were obtained:
[1] = biological target: HER2 (Her2/neu, ErbB2) on human cells and in human tissue sections (human) (UniProt P04626); assay: immunohistochemistry on breast tissue
[2] = biological target: HER2 (Her2/neu, ErbB2) on human cells and in human tissue sections (human) (UniProt P04626); assay: immunohistochemistry on colon tissue
[3] = biological target: HER2 (Her2/neu, ErbB2) on human cells and in human tissue sections (human) (UniProt P04626); assay: immunohistochemistry on stomach cancer tissue
[4] = biological target: phosphorylated form of HER2 from SKBR3 cell lysates (185 kDa band) (human) (UniProt P04626); assay: reciprocal immunoprecipitation and western blot with anti-phosphotyrosine, 185 kDa band
[5] = biological target: HER2 (Her2/neu, ErbB2) on human cells and in human tissue sections (human) (UniProt P04626); assay: immunohistochemistry on FFPE tissue sections
[6] = biological target: HER2 (Her2/neu, ErbB2) on human cells and in human tissue sections (human) (UniProt P04626); assay: immunofluorescence on fixed, permeabilised cells
[7] = biological target: HER2 (Her2/neu, ErbB2) on human cells and in human tissue sections (human) (UniProt P04626); assay: immunohistochemistry on a breast cancer tissue microarray
[8] = biological target: phosphorylated form of HER2 from SKBR3 cell lysates (185 kDa band) (human) (UniProt P04626); assay: immunoprecipitation from SKBR3 lysate and western blot
[9] = biological target: HER2 isolated as Spot 1 on a 2D gel (UniProt P04626); assay: 2D gel western blot, spot identified by MALDI-MS
[10] = biological target: soluble/shed HER2 in human plasma (human) (UniProt P04626); assay: ELISA on plates coated with plasma

Measured: binding

B1: Alper-HER2 mAb 2HE (antibody, IgG1, V domains shown)
VH: GPGLAAPSQSLSITCTVSGFSLTSYVISWVRQPPGKGLEWLGVIWTGGGTNYNSALKSRLSISKDNSKSQVSLKMNSLQTDDTARYYCASLSYDGFDYWGQGTTVT
VL: ILMTQSPAIMSASPGEKVTMTCSASSSVSYMHWYQQKSGTSPKRWIYDTSKLASGVPARFSGSGSGTSYSLTISSMEAEDAATYYCQQWSSNPLTFGAGTKLEIK
binds: all assays above
